Test results from PubChem BioAssay AID248 (DTP/NCI, 2004).
The list does not hold the whole screen: it is rich in T/C values a quarter to a half above the control, in often repeated tests (any T/C) and in doses without a T/C. Other doses and runs of a compound stand elsewhere. T/C: endpoint of the treated group in % of that of the vehicle group. Some entries give survivors of the animals treated and no T/C: the source files T/C as zero there, which appears to mark a toxic dose or a test without result, not a measured value. Some survivor counts are full or nearly so, which does not show that the dose was tolerated: the source hardly ever lists a survival T/C far under the control, and the zero likely stands for such cases as well. Survivors were counted at the toxicity check, usually on the fifth day, unless a day is given; later deaths do not show. Schedule codes are those of the source, taken here to give the interval after Q, in days (D) or hours (H), and the number of doses after X. Some entries hold several experiments; the results are listed from low to high. Some schedule codes hold Z or #, which are not explained here. Where survival is the endpoint, this PubChem deposit counts one and a half times the control or more as active, and values a quarter to a half above the control carry no call in these data; other NCI protocols may use other cut-offs. Some T/C values carry the count of animals alive at the toxicity check (mostly the fifth day); without a count, all were alive then.

System: L1210 leukemia ip in BDF1 mice, survival T/C
Assay: NCI In Vivo Anticancer Drug Screen. Data for tumor model L1210 Leukemia (intraperitoneal) in B6D2F1 (BDF1) mice
Conditions: T/C endpoint: mean survival time, higher T/C = longer survival
[1] = dose: 400.0 mg/kg/injection, schedule: Q04DX003 (ip), vehicle: saline

For `C[n+]1cccc2c3ccccc3c(-c3ccccc3)cc21`, the survivor count (dose: 12.5 mg/kg/injection, schedule: Q01DX009 (ip), vehicle: water) was 3 of 6, the survivor count (dose: 25.0 mg/kg/injection, schedule: Q01DX009 (ip), vehicle: water) was 3 of 6 and the survivor count (dose: 50.0 mg/kg/injection, schedule: Q04DX003 (ip), vehicle: water) was 6 of 6. The survivor count (dose: 100.0 mg/kg/injection, schedule: Q04DX003 (ip), vehicle: water) was 0 of 6, the survivor count (dose: 200.0 mg/kg/injection, schedule: Q04DX003 (ip), vehicle: water) was 0 of 6 and the survivor count (dose: 400.0 mg/kg/injection, schedule: Q04DX003 (ip), vehicle: water) was 0 of 6.
With `CC1(C)N=C(N)N=C(N)N1c1ccc(OCCCNC(=O)Nc2cccc(S(=O)(=O)F)c2)c(Cl)c1` the T/C (dose: 100.0 mg/kg/injection, schedule: Q01DX009 (ip), vehicle: saline) was 130 % of control, the T/C (dose: 200.0 mg/kg/injection, schedule: Q01DX009 (ip), vehicle: saline) was 135 % of control and the survivor count (dose: 400.0 mg/kg/injection, schedule: Q01DX009 (ip), vehicle: saline) was 2 of 6.
`CN=C1N[N+]2=C(C)CCCC2S1` (centres undefined) was tested, and the survivor count [1] was 0 of 4.
`COc1cc(N(CCCl)CCCl)c(OC)cc1C=Nc1ccc(-c2nc(Cc3ccccc3)sc2C)cc1` was tested, and the T/C (dose: 13.0 mg/kg/injection, schedule: Q01DX009 (ip), vehicle: other) was 131 % of control, the T/C (dose: 20.0 mg/kg/injection, schedule: Q01DX009 (ip), vehicle: other) was 138 % of control and the T/C (dose: 30.0 mg/kg/injection, schedule: Q01DX009 (ip), vehicle: other) was 143 % of control. The T/C (dose: 44.0 mg/kg/injection, schedule: Q01DX009 (ip), vehicle: carboxymethylcellulose (CMC)) was 127 % of control, the T/C (dose: 50.0 mg/kg/injection, schedule: Q01DX001 (ip), vehicle: carboxymethylcellulose (CMC)) was 129 % of control and the T/C (dose: 66.0 mg/kg/injection, schedule: Q01DX001 (ip), vehicle: carboxymethylcellulose (CMC)) was 128 % of control. For the same compound, the T/C (dose: 66.0 mg/kg/injection, schedule: Q01DX009 (ip), vehicle: other) was 132 % of control [4 of 6 alive], the T/C (dose: 75.0 mg/kg/injection, schedule: Q01DX001 (ip), vehicle: carboxymethylcellulose (CMC)) was 141 % of control and the T/C (dose: 100.0 mg/kg/injection, schedule: Q01DX001 (ip), vehicle: carboxymethylcellulose (CMC)) was 130 % of control. The T/C (dose: 150.0 mg/kg/injection, schedule: Q01DX001 (ip), vehicle: carboxymethylcellulose (CMC)) was 142 % of control, the survivor count (dose: 150.0 mg/kg/injection, schedule: Q01DX009 (ip), vehicle: carboxymethylcellulose (CMC)) was 3 of 6 and the survivor count (dose: 300.0 mg/kg/injection, schedule: Q01DX001 (ip), vehicle: carboxymethylcellulose (CMC)) was 3 of 6.
For `CC(=O)NC1C(NC(=O)C(CC(=O)O)NC(=O)OCc2ccccc2)OC(COC(C)=O)C(OC(C)=O)C1OC(C)=O` (centres undefined), the survivor count (dose: 200.0 mg/kg/injection, schedule: Q04DX002 (ip), vehicle: Klucel (hydroxypropylcellulose) (HPC)) was 3 of 3.
In the case of `C[n+]1ccc(NC(=O)c2ccc(NC(=O)c3ccc(C(=O)Nc4ccc(C(=O)Nc5cc[n+](C)cc5)cc4)c(N)c3)cc2)cc1`, the survivor count (dose: 60.0 mg/kg/injection, schedule: Q01DX Z (ip), vehicle: water) is reported as 3 of 6, the survivor count (dose: 100.0 mg/kg/injection, schedule: Q01DX Z (ip), vehicle: water) is reported as 6 of 6 and the survivor count (dose: 125.0 mg/kg/injection, schedule: Q01DX Z (ip), vehicle: carboxymethylcellulose (CMC)) is reported as 0 of 6. The survivor count (dose: 250.0 mg/kg/injection, schedule: Q01DX Z (ip), vehicle: carboxymethylcellulose (CMC)) was 0 of 6 and the survivor count (dose: 500.0 mg/kg/injection, schedule: Q01DX Z (ip), vehicle: carboxymethylcellulose (CMC)) was 0 of 6.
`CCOC(=O)C(Br)C(=O)OCC` was tested, and the survivor count (dose: 37.5 mg/kg/injection, schedule: Q01DX009 (ip), vehicle: saline with Tween-80) was 1 of 6 and the survivor count (dose: 75.0 mg/kg/injection, schedule: Q01DX009 (ip), vehicle: saline with Tween-80) was 0 of 6.
`C=CCCCCCCCCCNc1cc2c3c(c1)CCCN3CCC2` was tested, and the survivor count (dose: 0.78 mg/kg/injection, schedule: Q01DX009 (ip), vehicle: saline) was 1 of 6, the survivor count (dose: 1.56 mg/kg/injection, schedule: Q04DX003 (ip), vehicle: saline) was 2 of 6 and the survivor count (dose: 3.12 mg/kg/injection, schedule: Q04DX003 (ip), vehicle: saline) was 0 of 6. For the same compound, the survivor count (dose: 6.25 mg/kg/injection, schedule: Q04DX003 (ip), vehicle: saline) was 1 of 6, the survivor count (dose: 12.5 mg/kg/injection, schedule: Q04DX003 (ip), vehicle: saline) was 0 of 6 and the survivor count (dose: 25.0 mg/kg/injection, schedule: Q04DX003 (ip), vehicle: saline) was 0 of 6. For the same compound, the survivor count (dose: 50.0 mg/kg/injection, schedule: Q04DX003 (ip), vehicle: saline) was 0 of 6, the survivor count (dose: 100.0 mg/kg/injection, schedule: Q04DX003 (ip), vehicle: alcohol) was 0 of 6 and the survivor count (dose: 200.0 mg/kg/injection, schedule: Q04DX003 (ip), vehicle: alcohol) was 0 of 6. For the same compound, the survivor count (dose: 400.0 mg/kg/injection, schedule: Q04DX003 (ip), vehicle: alcohol) was 0 of 6.
`CC(C)=C(C=O)CCC(C)C` was tested, and the survivor count (dose: 400.0 mg/kg/injection, schedule: Q01DX009 (ip), vehicle: saline with Tween-80) was 2 of 6.
In the case of `Cc1cc(Nc2ccc(C)c(C)c2)nc(N)n1`, the survivor count (dose: 200.0 mg/kg/injection, schedule: Q01DX Z (ip), vehicle: methylcellulose (MC)) is reported as 5 of 6.
With `Cc1c2ccncc2c(C)c2c1[nH]c1ccc(O)cc12` the survivor count (dose: 1.56 mg/kg/injection, schedule: Q01DX009 (ip), vehicle: saline with Tween-80) was 5 of 6, the T/C (dose: 3.12 mg/kg/injection, schedule: Q01DX009 (ip), vehicle: saline with Tween-80) was 127 % of control and the T/C (dose: 6.3 mg/kg/injection, schedule: Q01DX009 (ip), vehicle: saline with Tween-80) was 137 % of control. For the same compound, the T/C (dose: 12.5 mg/kg/injection, schedule: Q01DX009 (ip), vehicle: saline with Tween-80) was 130 % of control, the T/C (dose: 12.5 mg/kg/injection, schedule: Q04DX003 (ip), vehicle: saline with Tween-80) was 127 % of control [5 of 6 alive] and the survivor count (dose: 25.0 mg/kg/injection, schedule: Q01DX009 (ip), vehicle: saline with Tween-80) was 4 of 6 and 5 of 6. For the same compound, the T/C (dose: 25.0 mg/kg/injection, schedule: Q04DX003 (ip), vehicle: saline with Tween-80) was 135 % of control, the survivor count (dose: 50.0 mg/kg/injection, schedule: Q01DX009 (ip), vehicle: saline with Tween-80) was 3 of 6 and the T/C (dose: 50.0 mg/kg/injection, schedule: Q04DX003 (ip), vehicle: saline with Tween-80) was 125 % of control. The survivor count (dose: 100.0 mg/kg/injection, schedule: Q04DX003 (ip), vehicle: saline with Tween-80) was 2 of 6 and 5 of 6, the survivor count (dose: 200.0 mg/kg/injection, schedule: Q04DX003 (ip), vehicle: saline with Tween-80) was 1 of 6 and the survivor count (dose: 400.0 mg/kg/injection, schedule: Q04DX003 (ip), vehicle: saline with Tween-80) was 0 of 6.
`CC(=O)NCCSC(=O)C(=O)SCCNC(C)=O` was tested, and the survivor count (dose: 200.0 mg/kg/injection, schedule: Q01DX Z (ip), vehicle: saline) was 3 of 6, the survivor count (dose: 300.0 mg/kg/injection, schedule: Q01DX001 (ip), vehicle: saline) was 0 of 6 and 2 of 6 and the survivor count (dose: 450.0 mg/kg/injection, schedule: Q01DX001 (ip), vehicle: saline) was 0 of 6.
`CCC1(CC)CC1(Cl)Cl` was tested, and the survivor count (dose: 300.0 mg/kg/injection, schedule: Q01DX001 (ip), vehicle: acetone) was 1 of 6.
For `Cc1cccc(C)c1NC(=O)Nc1ccc(CCO)cc1`, the survivor count (dose: 400.0 mg/kg/injection, schedule: Q01DX009 (ip), vehicle: Klucel (hydroxypropylcellulose) (HPC)) was 6 of 6.
For `BrC1CCCCN1Cc1cc2ccccc2cc1CN1CCCCC1Br` (centres undefined), the survivor count (dose: 37.5 mg/kg/injection, schedule: Q01DX001 (ip), vehicle: other) was 0 of 6, the survivor count (dose: 75.0 mg/kg/injection, schedule: Q01DX001 (ip), vehicle: other) was 0 of 6 and the survivor count (dose: 150.0 mg/kg/injection, schedule: Q01DX001 (ip), vehicle: other) was 2 of 6. For the same compound, the survivor count (dose: 300.0 mg/kg/injection, schedule: Q01DX001 (ip), vehicle: other) was 0 of 6.
In the case of `O=C(C[N+]12CCC(O)C1C(CO)CC2)c1ccc(Br)cc1` (centres undefined), the survivor count [1] is reported as 0 of 6.
